From the supplement of paper PMC6411743
± gives the standard deviation of the averaged measurements. This is one part of the list.

By UniProt entry, the sequences of proteins in these tests, tags left out. Where a name states a change or a piece, a line headed by the entry shows the natural chain unless it says otherwise.
UniProt P22626: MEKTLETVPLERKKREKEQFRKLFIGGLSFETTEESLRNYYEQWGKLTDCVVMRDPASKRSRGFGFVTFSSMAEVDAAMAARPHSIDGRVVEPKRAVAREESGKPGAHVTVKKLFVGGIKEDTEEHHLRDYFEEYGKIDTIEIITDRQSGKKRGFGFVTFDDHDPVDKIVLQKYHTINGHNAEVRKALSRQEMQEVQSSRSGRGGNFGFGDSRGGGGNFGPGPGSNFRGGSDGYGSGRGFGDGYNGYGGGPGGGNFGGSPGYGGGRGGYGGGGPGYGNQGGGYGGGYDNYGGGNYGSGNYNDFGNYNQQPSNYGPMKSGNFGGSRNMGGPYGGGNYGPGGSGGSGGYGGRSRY
UniProt P08579, whole entry: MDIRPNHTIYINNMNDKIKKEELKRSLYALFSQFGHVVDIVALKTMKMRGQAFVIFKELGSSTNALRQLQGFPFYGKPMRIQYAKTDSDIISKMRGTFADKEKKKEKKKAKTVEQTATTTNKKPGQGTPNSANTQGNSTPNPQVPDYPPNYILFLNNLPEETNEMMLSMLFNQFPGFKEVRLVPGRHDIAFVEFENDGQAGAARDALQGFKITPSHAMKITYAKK
UniProt P21283, whole entry: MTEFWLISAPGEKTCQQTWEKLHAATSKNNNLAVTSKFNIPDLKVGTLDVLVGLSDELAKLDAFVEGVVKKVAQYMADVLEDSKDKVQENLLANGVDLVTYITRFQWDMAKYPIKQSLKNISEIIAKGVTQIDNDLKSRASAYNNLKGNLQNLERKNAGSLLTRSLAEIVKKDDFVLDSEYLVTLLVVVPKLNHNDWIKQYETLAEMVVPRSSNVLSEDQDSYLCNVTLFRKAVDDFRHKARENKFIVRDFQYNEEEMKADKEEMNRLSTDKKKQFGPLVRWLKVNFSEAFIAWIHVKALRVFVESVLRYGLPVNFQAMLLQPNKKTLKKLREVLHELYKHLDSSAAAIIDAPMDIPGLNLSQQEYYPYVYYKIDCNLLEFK
UniProt P14649: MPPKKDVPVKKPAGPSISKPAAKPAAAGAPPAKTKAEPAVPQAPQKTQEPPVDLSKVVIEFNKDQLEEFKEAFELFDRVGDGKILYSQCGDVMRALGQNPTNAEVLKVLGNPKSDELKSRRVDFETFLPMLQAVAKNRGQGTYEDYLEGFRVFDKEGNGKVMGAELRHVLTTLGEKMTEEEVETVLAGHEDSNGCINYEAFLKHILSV
UniProt P15104, whole entry: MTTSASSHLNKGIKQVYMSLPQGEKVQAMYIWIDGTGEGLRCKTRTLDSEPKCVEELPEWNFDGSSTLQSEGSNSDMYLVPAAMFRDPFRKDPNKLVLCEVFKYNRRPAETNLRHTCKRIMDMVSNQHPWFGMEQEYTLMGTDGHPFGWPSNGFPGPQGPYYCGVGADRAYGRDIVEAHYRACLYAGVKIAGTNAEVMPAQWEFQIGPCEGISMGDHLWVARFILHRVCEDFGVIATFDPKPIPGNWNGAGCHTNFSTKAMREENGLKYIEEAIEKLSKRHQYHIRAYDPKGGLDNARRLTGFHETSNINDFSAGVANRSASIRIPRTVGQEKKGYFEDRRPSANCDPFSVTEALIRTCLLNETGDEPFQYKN
UniProt P26640: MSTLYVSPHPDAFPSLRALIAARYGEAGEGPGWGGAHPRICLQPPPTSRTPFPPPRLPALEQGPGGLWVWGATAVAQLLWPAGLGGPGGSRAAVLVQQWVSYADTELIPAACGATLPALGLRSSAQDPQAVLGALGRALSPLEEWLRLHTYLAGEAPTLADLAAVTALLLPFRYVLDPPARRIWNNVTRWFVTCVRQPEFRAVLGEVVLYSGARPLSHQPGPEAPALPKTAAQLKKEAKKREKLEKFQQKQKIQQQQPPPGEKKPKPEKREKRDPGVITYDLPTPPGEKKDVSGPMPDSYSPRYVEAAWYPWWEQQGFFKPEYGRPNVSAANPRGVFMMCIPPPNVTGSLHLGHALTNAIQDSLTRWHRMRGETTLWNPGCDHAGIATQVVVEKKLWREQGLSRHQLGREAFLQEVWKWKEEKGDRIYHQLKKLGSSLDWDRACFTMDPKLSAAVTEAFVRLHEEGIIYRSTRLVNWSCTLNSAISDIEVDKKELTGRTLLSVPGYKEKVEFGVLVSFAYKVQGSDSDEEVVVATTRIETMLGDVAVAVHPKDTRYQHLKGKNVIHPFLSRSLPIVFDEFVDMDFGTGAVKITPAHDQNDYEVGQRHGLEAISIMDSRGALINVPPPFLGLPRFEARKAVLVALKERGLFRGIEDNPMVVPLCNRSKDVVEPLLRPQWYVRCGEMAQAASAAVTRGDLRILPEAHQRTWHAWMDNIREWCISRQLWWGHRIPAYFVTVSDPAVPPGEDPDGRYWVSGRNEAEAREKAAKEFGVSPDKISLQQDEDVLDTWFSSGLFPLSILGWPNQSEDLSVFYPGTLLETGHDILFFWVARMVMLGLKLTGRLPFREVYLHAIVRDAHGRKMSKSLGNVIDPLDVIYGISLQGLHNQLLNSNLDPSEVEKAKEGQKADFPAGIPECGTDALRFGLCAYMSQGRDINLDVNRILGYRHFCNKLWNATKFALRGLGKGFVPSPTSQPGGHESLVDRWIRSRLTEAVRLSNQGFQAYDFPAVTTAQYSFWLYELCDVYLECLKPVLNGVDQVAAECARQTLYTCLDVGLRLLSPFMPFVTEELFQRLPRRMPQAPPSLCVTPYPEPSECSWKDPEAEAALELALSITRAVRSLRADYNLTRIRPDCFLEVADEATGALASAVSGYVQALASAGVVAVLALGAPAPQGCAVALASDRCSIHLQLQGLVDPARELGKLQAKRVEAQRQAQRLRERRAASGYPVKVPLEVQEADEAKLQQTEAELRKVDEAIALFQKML
UniProt P07384: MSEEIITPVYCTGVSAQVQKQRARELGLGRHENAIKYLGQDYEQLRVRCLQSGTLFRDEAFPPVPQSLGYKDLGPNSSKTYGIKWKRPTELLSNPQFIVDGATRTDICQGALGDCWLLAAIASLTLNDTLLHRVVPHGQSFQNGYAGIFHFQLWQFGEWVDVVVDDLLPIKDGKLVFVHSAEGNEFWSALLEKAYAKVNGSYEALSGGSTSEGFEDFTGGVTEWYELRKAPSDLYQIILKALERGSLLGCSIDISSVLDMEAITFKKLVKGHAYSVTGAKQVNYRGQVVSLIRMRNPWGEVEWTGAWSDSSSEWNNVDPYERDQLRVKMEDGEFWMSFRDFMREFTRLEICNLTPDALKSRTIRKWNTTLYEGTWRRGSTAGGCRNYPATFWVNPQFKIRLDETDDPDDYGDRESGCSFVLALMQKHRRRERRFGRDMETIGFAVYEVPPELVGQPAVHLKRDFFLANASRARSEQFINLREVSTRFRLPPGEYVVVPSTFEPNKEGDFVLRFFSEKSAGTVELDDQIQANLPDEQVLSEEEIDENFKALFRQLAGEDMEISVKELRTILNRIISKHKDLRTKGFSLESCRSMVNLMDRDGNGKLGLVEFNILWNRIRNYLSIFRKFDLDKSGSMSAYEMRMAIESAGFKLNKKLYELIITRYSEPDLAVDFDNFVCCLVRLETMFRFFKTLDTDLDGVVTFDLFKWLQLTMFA
UniProt P25788: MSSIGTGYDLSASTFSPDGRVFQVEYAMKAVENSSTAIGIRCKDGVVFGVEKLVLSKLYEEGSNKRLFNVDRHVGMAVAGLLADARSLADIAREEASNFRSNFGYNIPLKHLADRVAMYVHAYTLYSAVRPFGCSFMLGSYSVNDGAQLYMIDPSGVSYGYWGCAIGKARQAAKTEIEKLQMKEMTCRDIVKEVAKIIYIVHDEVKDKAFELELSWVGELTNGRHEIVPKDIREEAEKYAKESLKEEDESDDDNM
UniProt P25205: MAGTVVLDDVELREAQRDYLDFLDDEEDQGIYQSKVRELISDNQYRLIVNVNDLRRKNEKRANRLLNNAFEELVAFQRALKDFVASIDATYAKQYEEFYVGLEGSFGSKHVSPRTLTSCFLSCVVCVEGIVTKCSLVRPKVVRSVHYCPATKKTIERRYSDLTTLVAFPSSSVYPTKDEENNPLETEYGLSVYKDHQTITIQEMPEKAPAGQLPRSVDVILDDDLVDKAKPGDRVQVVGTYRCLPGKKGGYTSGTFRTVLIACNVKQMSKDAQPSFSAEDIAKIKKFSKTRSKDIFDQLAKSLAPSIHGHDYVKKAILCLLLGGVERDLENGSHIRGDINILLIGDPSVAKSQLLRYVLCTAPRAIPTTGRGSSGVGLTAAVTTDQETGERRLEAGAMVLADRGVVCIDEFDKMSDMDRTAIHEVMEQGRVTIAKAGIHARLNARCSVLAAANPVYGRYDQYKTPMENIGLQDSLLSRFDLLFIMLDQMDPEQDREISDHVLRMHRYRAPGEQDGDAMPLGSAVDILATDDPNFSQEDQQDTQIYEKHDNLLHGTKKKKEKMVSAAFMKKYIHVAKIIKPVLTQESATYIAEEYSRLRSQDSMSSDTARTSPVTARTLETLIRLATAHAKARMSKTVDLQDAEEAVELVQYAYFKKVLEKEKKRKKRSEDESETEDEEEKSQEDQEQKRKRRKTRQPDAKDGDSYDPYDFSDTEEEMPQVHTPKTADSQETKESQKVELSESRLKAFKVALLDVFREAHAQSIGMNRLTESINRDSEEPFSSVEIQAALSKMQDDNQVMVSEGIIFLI
UniProt P12955: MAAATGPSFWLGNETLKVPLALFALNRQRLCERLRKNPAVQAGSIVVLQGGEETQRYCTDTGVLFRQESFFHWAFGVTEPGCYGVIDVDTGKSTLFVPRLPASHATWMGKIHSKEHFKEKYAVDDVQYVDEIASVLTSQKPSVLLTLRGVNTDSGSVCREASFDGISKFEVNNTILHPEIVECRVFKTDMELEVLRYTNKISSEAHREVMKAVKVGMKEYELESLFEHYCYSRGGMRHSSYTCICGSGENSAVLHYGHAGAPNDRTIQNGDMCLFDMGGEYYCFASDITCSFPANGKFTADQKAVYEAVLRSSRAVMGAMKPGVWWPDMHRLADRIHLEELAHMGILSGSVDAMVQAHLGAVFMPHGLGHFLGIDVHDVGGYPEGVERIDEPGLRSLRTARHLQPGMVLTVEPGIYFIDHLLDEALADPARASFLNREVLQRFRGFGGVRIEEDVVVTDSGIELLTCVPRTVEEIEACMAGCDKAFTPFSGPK
UniProt P09661: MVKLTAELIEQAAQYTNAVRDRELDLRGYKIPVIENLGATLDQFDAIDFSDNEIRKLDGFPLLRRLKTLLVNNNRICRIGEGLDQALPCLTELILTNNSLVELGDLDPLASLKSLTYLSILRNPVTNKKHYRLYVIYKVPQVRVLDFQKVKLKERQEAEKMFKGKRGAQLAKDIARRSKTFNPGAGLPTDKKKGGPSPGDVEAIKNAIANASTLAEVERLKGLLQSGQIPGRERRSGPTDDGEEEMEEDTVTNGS
UniProt P23229: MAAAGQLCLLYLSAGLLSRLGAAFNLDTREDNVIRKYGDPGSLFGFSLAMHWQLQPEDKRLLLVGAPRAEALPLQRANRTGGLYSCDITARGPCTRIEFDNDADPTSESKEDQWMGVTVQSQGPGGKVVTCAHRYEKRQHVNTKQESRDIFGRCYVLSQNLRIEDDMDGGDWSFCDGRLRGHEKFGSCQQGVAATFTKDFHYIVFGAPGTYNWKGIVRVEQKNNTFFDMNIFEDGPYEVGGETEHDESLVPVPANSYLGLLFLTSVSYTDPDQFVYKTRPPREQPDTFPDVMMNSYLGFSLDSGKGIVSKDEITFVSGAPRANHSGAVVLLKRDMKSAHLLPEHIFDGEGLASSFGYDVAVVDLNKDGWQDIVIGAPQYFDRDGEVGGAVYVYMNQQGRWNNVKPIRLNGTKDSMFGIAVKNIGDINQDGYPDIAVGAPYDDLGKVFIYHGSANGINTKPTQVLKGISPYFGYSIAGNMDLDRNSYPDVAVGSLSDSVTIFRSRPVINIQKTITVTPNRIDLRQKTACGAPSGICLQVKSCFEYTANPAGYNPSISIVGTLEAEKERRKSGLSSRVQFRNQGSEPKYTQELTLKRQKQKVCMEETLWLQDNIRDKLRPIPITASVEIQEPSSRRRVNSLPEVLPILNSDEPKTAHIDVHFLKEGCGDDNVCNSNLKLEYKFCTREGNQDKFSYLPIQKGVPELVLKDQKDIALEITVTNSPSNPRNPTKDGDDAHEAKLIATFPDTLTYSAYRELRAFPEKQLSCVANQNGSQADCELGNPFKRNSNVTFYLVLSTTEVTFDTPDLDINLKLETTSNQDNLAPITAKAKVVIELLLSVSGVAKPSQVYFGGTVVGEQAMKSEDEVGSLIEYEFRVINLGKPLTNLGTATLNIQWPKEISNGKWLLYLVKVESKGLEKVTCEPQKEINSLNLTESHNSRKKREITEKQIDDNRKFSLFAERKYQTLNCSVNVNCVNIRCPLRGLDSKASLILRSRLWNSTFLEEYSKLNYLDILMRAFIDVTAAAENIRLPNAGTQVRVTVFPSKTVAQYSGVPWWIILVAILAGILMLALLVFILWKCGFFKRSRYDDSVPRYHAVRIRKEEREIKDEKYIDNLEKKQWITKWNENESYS

Compound: Nc1nc2c(ncn2[C@@H]2O[C@H](COP(=O)(O)OP(=O)(O)OP(=O)(O)O)[C@@H](O)[C@H]2O)c(=O)[nH]1 [guanosine triphosphate]
Test: NP40-soluble protein abundance relative to vehicle (solubility fold change) (ratio); higher = more soluble protein in presence of GTP
How it was run: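 Values are fold changes against the detergent-processed vehicle, based on vsn-normalised intensities. Jurkat crude lysate was treated at eight concentrations from 0.1 to 10 mM (10 min at room temperature, then 3 min at 37 °C), solubilised with 0.8% NP40 and benzonase, ultracentrifuged and analysed by TMT-labelled LC-MS/MS over three independent experiments.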

| Target | NP40-soluble protein abundance (concentration: 0.1mM) | NP40-soluble protein abundance (concentration: 0.5mM) | NP40-soluble protein abundance (concentration: 1mM) | NP40-soluble protein abundance (concentration: 2mM) | NP40-soluble protein abundance (concentration: 4mM) | NP40-soluble protein abundance (concentration: 6mM) | NP40-soluble protein abundance (concentration: 8mM) | NP40-soluble protein abundance (concentration: 10mM) |
| --- | --- | --- | --- | --- | --- | --- | --- | --- |
| HNRNPA2B1 (UniProt P22626) | 1.02 ± 0.038 | 1.17 ± 0.15 | 1.26 ± 0.25 | 1.39 ± 0.33 | 1.45 ± 0.44 | 1.46 ± 0.42 | 1.5 ± 0.47 | 1.46 ± 0.45 |
| SNRPB2 (UniProt P08579) | 0.959 ± 0.086 | 0.89 ± 0.03 | 1.06 ± 0.054 | 1.03 ± 0.033 | 1.1 ± 0.066 | 1.05 ± 0.018 | 1.07 ± 0.11 | 1.07 ± 0.05 |
| ATP6V1C1 (UniProt P21283) | 0.973 ± 0.01 | 0.987 ± 0.018 | 0.9441 ± 0.0043 | 0.948 ± 0.023 | 0.939 ± 0.025 | 0.951 ± 0.01 | 0.93 ± 0.011 | 0.907 ± 0.015 |
| UniProt P14649 and related entries | 0.947 ± 0.091 | 0.976 ± 0.037 | 1.12 ± 0.12 | 1.08 ± 0.032 | 1.09 ± 0.056 | 1.11 ± 0.055 | 1.11 ± 0.1 | 1.23 ± 0.15 |
| GLUL (UniProt P15104) | 1.01 ± 0.011 | 1.03 ± 0.036 | 1.01 ± 0.028 | 1 ± 0.041 | 1.02 ± 0.07 | 1.03 ± 0.059 | 1.04 ± 0.073 | 0.993 ± 0.054 |
| VARS (UniProt P26640) | 1.04 ± 0.025 | 1.08 ± 0.072 | 1.02 ± 0.072 | 1.05 ± 0.098 | 1.05 ± 0.093 | 1.06 ± 0.12 | 1.04 ± 0.11 | 1.02 ± 0.088 |
| CAPN1 (UniProt P07384) | 1.04 ± 0.062 | 1.04 ± 0.05 | 0.94 ± 0.031 | 0.949 ± 0.066 | 0.945 ± 0.059 | 0.926 ± 0.036 | 0.91 ± 0.064 | 0.868 ± 0.094 |
| UniProt P25788 and related entries | 1.04 ± 0.05 | 1.03 ± 0.1 | 1.01 ± 0.11 | 1.04 ± 0.17 | 1.06 ± 0.17 | 1.06 ± 0.18 | 1.03 ± 0.13 | 0.992 ± 0.17 |
| MCM3 (UniProt P25205) | 0.998 ± 0.035 | 1.04 ± 0.06 | 0.986 ± 0.074 | 1.01 ± 0.11 | 1.02 ± 0.11 | 1.01 ± 0.1 | 0.978 ± 0.076 | 0.966 ± 0.059 |
| PEPD (UniProt P12955) | 1.1 ± 0.12 | 1.13 ± 0.11 | 0.974 ± 0.067 | 0.989 ± 0.11 | 0.969 ± 0.092 | 0.941 ± 0.062 | 0.893 ± 0.062 | 0.853 ± 0.099 |
| SNRPA1 (UniProt P09661) | 0.904 ± 0.019 | 0.867 ± 0.052 | 0.991 ± 0.023 | 1.01 ± 0.051 | 1.06 ± 0.033 | 1.04 ± 0.067 | 1.03 ± 0.081 | 1.14 ± 0.048 |
| UniProt P16284 and related entries | 0.93 ± 0.077 | 0.896 ± 0.074 | 0.935 ± 0.071 | 0.905 ± 0.12 | 0.897 ± 0.1 | 0.89 ± 0.097 | 0.899 ± 0.074 | 0.927 ± 0.09 |
| EEF2 (UniProt P13639) | 0.97 ± 0.02 | 0.985 ± 0.038 | 0.874 ± 0.013 | 0.845 ± 0.049 | 0.843 ± 0.034 | 0.845 ± 0.025 | 0.814 ± 0.035 | 0.806 ± 0.068 |
| UniProt P23229 and related entries | 1.01 ± 0.02 | 0.992 ± 0.11 | 0.978 ± 0.06 | 0.999 ± 0.058 | 0.975 ± 0.04 | 0.963 ± 0.085 | 1.02 ± 0.053 | 0.969 ± 0.058 |

Just NP40-soluble protein abundance (concentration: 6mM), NP40-soluble protein abundance (concentration: 0.5mM) and NP40-soluble protein abundance (concentration: 0.1mM) (2 entries from above):
Target,NP40-soluble protein abundance (concentration: 6mM),NP40-soluble protein abundance (concentration: 0.5mM),NP40-soluble protein abundance (concentration: 0.1mM)
EEF2 (UniProt P13639),0.845 ± 0.025,0.985 ± 0.038,0.97 ± 0.02
UniProt P23229 and related entries,0.963 ± 0.085,0.992 ± 0.11,1.01 ± 0.02
